The other results are listed elsewhere or left out. The main result of the screen is listed elsewhere. These columns were measured beside it and carry no call. The list favours compounds with an active or inconclusive main result. The note in brackets gives the kind of curve behind each potency; many fits are weak.
Assay: qHTS Assay to Find Inhibitors of Chronic Active B-Cell Receptor Signaling
Conditions: ABC-DLBCL IkBa-CBG/CBR reporter, luminescence ratio (green luciferase fused to IkBa over red control in TMD8 lymphoma cells), 4 h
Outline: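 Doxycycline induced both beetle luciferases in TMD8 lymphoma cells; IKK-driven degradation limits the IkappaBalpha-fused green signal, while red luminescence normalises for cell number and nonspecific effects. Compounds tested up to 46 uM, 4 hrs.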

[1] = measured here: CBR red luminescence, cell number
[2] = measured here: IkBa-CBG green luminescence

| SMILES | AC50 [1] | AC50 [2] |
| --- | --- | --- |
| Cc1cc(NC(=O)CSc2ncnc3ccccc23)no1 | 0.164 µM [falling, full curve, poor fit] |  |
| C[C@]12CC[C@@H]3c4ccc(O)cc4CC[C@H]3[C@@H]1CCC2=O | 11.6 µM [rising, partial curve] | 7.31 µM [falling, partial curve, poor fit] |
| CCCCCC(=O)Nc1sc(C)c(C)c1C#N | 5.17 µM [rising, partial curve, poor fit] |  |
| COc1ccc(C2(C)NC(=O)N(CC(=O)NC3CCCC3)C2=O)cc1OC (stereo unspecified) | 4.11 µM [falling, single point] |  |
| COC(=O)c1ccc(Nc2nnc(-c3ccc(C)c(S(=O)(=O)NCC4CCCO4)c3)c3ccccc23)cc1 (stereo unspecified) | 2.31 µM [falling, full curve] |  |
| Cc1ccc(/C(N)=N/OC(=O)CCC2CCCCC2)cc1 | 20 µM [rising, single point] |  |
| CCOC(=O)c1cc([N+](=O)[O-])sc1NC(=O)c1ccc(S(=O)(=O)N2CC3(C)CC2CC(C)(C)C3)cc1 (stereo unspecified) | 23.1 µM [rising, single point] |  |
| COC(=O)c1ccc(COc2ccccc2/C=C(\C#N)C(=O)Nc2ccc(C)cc2)cc1 | 29.1 µM [falling, single point] |  |
| COC(=O)/C(=C(O)\C=C\c1ccccc1[N+](=O)[O-])c1nc2ccccc2[nH]1 | 8.91 µM [falling, partial curve] |  |
| CCN1C(=O)NC(c2ccc(Cl)cc2)C2=C1CCCC2=O (stereo unspecified) | 5.62 µM [rising, single point] |  |
| Cc1cc(C)c(NC(=O)CN(C)CC(=O)Nc2cccc(S(=O)(=O)N(C)c3ccccc3)c2)c(C)c1 | 23.1 µM [falling, single point] |  |
| CCOc1ccc(CN(C(=O)c2oc3cc(C)ccc3c2C)C2CCS(=O)(=O)C2)cc1 (stereo unspecified) | 0.411 µM [rising, partial curve, poor fit] |  |
| Cc1cc(C)cc(NC(=O)c2ccc(CSc3nnc(C)s3)cc2)c1 | 11.2 µM [falling, partial curve, poor fit] |  |
| CCN(C(=O)COC(=O)CCC(=O)c1cccs1)C1CCCCC1 | 20.6 µM [rising, single point] |  |
| CC(=O)Nc1ccc(S(=O)(=O)Nc2ccc3c(c2)CCC3)cc1 | 3.98 µM [falling, full curve] |  |
| CCCCCOP(=O)(OCCCCC)C1(NS(=O)(=O)c2ccccc2)C=CC(=O)c2ccccc21 (stereo unspecified) | 15.8 µM [falling, single point] |  |
| Cc1ccc(C(=O)Nc2ncc([N+](=O)[O-])s2)cc1 | 0.112 µM [falling, full curve, poor fit] |  |
| O=C(NCc1ccncc1)Nc1cc(Cl)ccc1Cl | 14.1 µM [rising, single point] |  |
| Cc1cc(C)n(-c2nc(NCCCO)c3c4c(sc3n2)CCCC4)n1 | 0.112 µM [rising, full curve, poor fit] |  |
| O=C(NCc1ccc(F)cc1)Nc1cccc(Cl)c1 | 1 µM [rising, full curve, poor fit] |  |

| SMILES | AC50 [1] | AC50 [2] |
| --- | --- | --- |
| CN(C)CCNC(=O)c1c(NC(=O)c2ccccc2)sc2c1CCCC2 | 8.91 µM [falling, partial curve, poor fit] |  |
| COc1ccccc1Nc1nc(-c2sc(NC(=O)c3ccco3)nc2C)cs1 | 0.891 µM [falling, full curve] |  |
| COC(=O)Cc1c(C)nc2nc(-c3cccnc3)[nH]n2c1=O | 0.184 µM [falling, full curve, poor fit] |  |
| C=CC[C@@H]1C=C[C@H](O/N=C/c2ccc(C(=O)N3[C@H](c4ccc(C)cc4)[C@@H](C)CC[C@H]3C(=O)OC)cc2)[C@@H](CO)O1 | 10.3 µM [falling, partial curve, poor fit] |  |
| COC(=O)c1ccc(NC(=O)C23CCC(C)(C(=O)O2)C3(C)C)cc1 (stereo unspecified) | 12.6 µM [rising, single point] |  |
| CCCOc1cccc(C(=O)N/N=C/c2ccoc2)c1 | 11.2 µM [falling, partial curve] |  |
| O=C(NCC(c1ccco1)N1CCc2ccccc2C1)C(=O)Nc1ccc(F)cc1F (stereo unspecified) | 25.9 µM [falling, partial curve] |  |
| C/C(=N/NC(=O)Cc1cccs1)c1ccco1 | 23.1 µM [rising, partial curve, poor fit] |  |
| CCOC(=O)C1CCN(C(=O)Cn2nc(C)n3nc(-c4ccc(OC)cc4)cc3c2=O)CC1 | 12.6 µM [rising, partial curve, poor fit] |  |
| CCCCNCCCCOc1ccccc1 | 6.51 µM [falling, single point] |  |
| O=C(Nc1ccccc1Cl)c1ccc(-n2cccn2)c([N+](=O)[O-])c1 | 0.0891 µM [falling, full curve, poor fit] |  |
| Cc1ccc(C2NC(=O)c3ccccc3O2)cc1 (stereo unspecified) | 17.8 µM [rising, single point] |  |
| CC1CCCCN1CCNC(=O)c1cc2c(=O)n(C)c3ccccc3c2n1C (stereo unspecified) | 3.16 µM [falling, partial curve, poor fit] |  |
| COC(=O)c1[nH]c2cccc(C)c2c1NC(=O)CN1CCCc2ccccc21 | 6.51 µM [rising, single point] |  |
| C=CCN(c1ccccc1)S(=O)(=O)c1cccc(C(=O)NNC(=O)c2ccccc2O)c1 | 23.1 µM [falling, single point] |  |
| CCOC(=O)c1ccc(NC(=O)c2c(NCc3cccs3)sc3c2CCCCC3)cc1 | 20 µM [falling, single point] |  |
| CCN(C(=O)COC(=O)c1ccccc1NCCO)C1CCS(=O)(=O)C1 (stereo unspecified) | 23.1 µM [falling, partial curve] |  |
| CCOC(=O)[C@H]1[C@H]2COc3ccc(Br)cc3[C@@H]2N2C(=O)CN(Cc3ccco3)C(=O)[C@@]12C | 5.17 µM [falling, partial curve] | 5.8 µM [rising, partial curve, poor fit] |
| Oc1ccc(-c2nc3ccccc3nc2-c2ccccc2)cc1 | 3.98 µM [falling, partial curve, poor fit] |  |

Compounds from the list above that contain fluorine, in the order listed:

| SMILES | AC50 [1] | AC50 [2] |
| --- | --- | --- |
| O=C(NCc1ccc(F)cc1)Nc1cccc(Cl)c1 | 1 µM [rising, full curve, poor fit] |  |
| O=C(NCC(c1ccco1)N1CCc2ccccc2C1)C(=O)Nc1ccc(F)cc1F (stereo unspecified) | 25.9 µM [falling, partial curve] |  |
